Measured values from the supplement of paper PMC4604168 (melanoma cell lines).
This is one part of the list. Single values are uncertain, as repeats are few or missing.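 Imaging used 1,536-well plates; nuclei positive for cleaved PARP by antibody were divided by total DNA-stained nuclei to yield the apoptosis fraction. Doses for screening kept most cells viable, and cell lines differ markedly in resting and induced cleaved-PARP levels.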

tested on: UACC62; experiment: cleaved PARP positive nuclei fraction relative to DMSO control; melanoma cells; higher = more apoptosis; conditions: library dose: low library concentration; 72 h

In order of rising “cleaved PARP positive nuclei fraction” value:
1. O=C(/C=C/c1cccnc1)NCCCCC1CCN(C(=O)c2ccccc2)CC1 + O=C(Nc1ccccc1)c1cc([N+](=O)[O-])ccc1Cl [GW9662] (first compound 0.01 µM, partner dose 2 µM)  61%
2. CCCCCCCCCCCCCCCCCCOP(=O)([O-])OC1CC[N+](C)(C)CC1 [Perifosine] + CC(C)(C)c1cnc(CSc2cnc(NC(=O)C3CCNCC3)s2)o1 [SNS-032] (first compound 0.4 µM, partner dose 0.01 µM)  62.2%
3. O=c1[nH]nc(Sc2ncc([N+](=O)[O-])s2)n1-c1ccc2c(c1)OCCO2 + CC(C)CCN1c2nc(Nc3cc(F)c(O)c(F)c3)ncc2N(C)C(=O)C1C [BID1870] (first compound 0.2 µM, partner dose 0.2 µM)  85.4%
4. N#CC[C@H](C1CCCC1)n1cc(-c2ncnc3[nH]ccc23)cn1 [ruxolitinib] + NCC(=O)Nc1ccc(-n2nc(C(F)(F)F)cc2-c2ccc3c(ccc4ccccc43)c2)cc1 [OSU03012] (first compound 1 µM, partner dose 1 µM)  101%
5. CCCCCCCCCCCCCCCCCCOP(=O)([O-])OC1CC[N+](C)(C)CC1 [Perifosine] + O=S(=O)(c1ccccc1)N(CC(F)(F)F)c1ccc(C(O)(C(F)(F)F)C(F)(F)F)cc1 [T0901317] (first compound 0.4 µM, partner dose 1.4 µM)  126%
6. CC[C@]1(O)C[C@H]2CN(CCc3c([nH]c4ccccc34)[C@@](C(=O)OC)(c3cc4c(cc3OC)N(C=O)[C@H]3[C@@](O)(C(=O)OC)[C@H](OC(C)=O)[C@]5(CC)C=CCN6CC[C@]43[C@@H]65)C2)C1 [vincristine] + Cn1cncc1[C@@](N)(c1ccc(Cl)cc1)c1ccc2c(c1)c(-c1cccc(Cl)c1)cc(=O)n2C [tipifarnib] (first compound 0.0001 µM, partner dose 0.01 µM)  130%
7. COc1cc([C@@H]2c3cc4c(cc3[C@@H](O[C@@H]3O[C@@H]5CO[C@@H](C)O[C@H]5[C@H](O)[C@H]3O)[C@H]3COC(=O)[C@H]23)OCO4)cc(OC)c1O [etoposide] + COc1cc(N2CCC(N3CCN(C)CC3)CC2)ccc1Nc1ncc(Cl)c(Nc2ccccc2S(=O)(=O)C(C)C)n1 [NVP-TAE684] (first compound 0.02 µM, partner dose 0.08 µM)  141%
8. Cc1cc(Nc2cc(N3CCN(C)CC3)nc(Sc3ccc(NC(=O)C4CC4)cc3)n2)n[nH]1 [Tozasertib] + COc1cc(N2CCC(N3CCN(C)CC3)CC2)ccc1Nc1ncc(Cl)c(Nc2ccccc2S(=O)(=O)C(C)C)n1 [NVP-TAE684] (first compound 0.006 µM, partner dose 0.08 µM)  145%
9. Cc1ccc(Nc2nccc(N(C)c3ccc4c(C)n(C)nc4c3)n2)cc1S(N)(=O)=O [Pazopanib] + O=S(=O)(c1ccccc1)N(CC(F)(F)F)c1ccc(C(O)(C(F)(F)F)C(F)(F)F)cc1 [T0901317] (first compound 0.4 µM, partner dose 1.4 µM)  209%
10. Cc1cn(-c2cc(NC(=O)c3ccc(C)c(Nc4nccc(-c5cccnc5)n4)c3)cc(C(F)(F)F)c2)cn1 [nilotinib] + O=C(Nc1cccc(Cl)c1)Nc1ncc(CCNc2ncnc3ccsc23)s1 [SNS314] (first compound 0.2 µM, partner dose 0.0008 µM)  229%
11. Cc1cn(-c2cc(NC(=O)c3ccc(C)c(Nc4nccc(-c5cccnc5)n4)c3)cc(C(F)(F)F)c2)cn1 [nilotinib] + CN(NC(=O)CC(=O)NN(C)C(=S)c1ccccc1)C(=S)c1ccccc1 [STA4783] (first compound 0.2 µM, partner dose 0.006 µM)  244%
12. CC[C@]1(O)C[C@H]2CN(CCc3c([nH]c4ccccc34)[C@@](C(=O)OC)(c3cc4c(cc3OC)N(C=O)[C@H]3[C@@](O)(C(=O)OC)[C@H](OC(C)=O)[C@]5(CC)C=CCN6CC[C@]43[C@@H]65)C2)C1 [vincristine] + O=c1cc(-c2cccc3c2Sc2ccccc2S3)oc(N2CCOCC2)c1 [KU55933] (first compound 0.0001 µM, partner dose 1 µM)  502%
